{"source": "PubChem BioAssay AID743121 | NCATS, 2013", "test": "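Knock-downs that sensitise breast cancer cells to camptothecin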 (primary screen)", "system": "MDA-MB-231 cells, a human breast cancer line", "knock-down reagent": "single siRNA against human genes, 20 nM siRNA (0.8 pmol per well)", "time to read-out": "120 h (drug added 48 h after transfection, read 72 h later)", "conditions": "camptothecin 20 nM (about EC30) for 72 h; vehicle 0.1% DMSO in parallel plates", "measurement": "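CellTiter-Glo ATP signal, scaled to control siRNA as percent viability; sensitisation given as log2 of untreated divided by camptothecin-treated viability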", "direction": "log2 vehicle/camptothecin viability: higher = stronger sensitisation to camptothecin; viability with camptothecin: higher = more viable cells", "units": "viability with camptothecin in % of control", "active means": "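Each gene scored by redundant siRNA activity (RSA) over its individual siRNA ratios; a gene is called active at p < 0.001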", "note": "The deposit covers about 26,000 reagents; shown is an unselected part. Of all reagents, 167 (0.63%) were called active. 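Calls are per gene from RSA p-values that are not deposited; an individual active-marked siRNA can sensitise only weakly.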 A number with no mark means an inactive call. Reagents against one gene are numbered here. Not all columns of the deposit are shown."}
{"Gene":"ESR2 (estrogen receptor 2)","reagent no.":1,"log2 vehicle/camptothecin viability":-0.165,"viability with camptothecin":102}
{"Gene":"ESR2 (estrogen receptor 2)","reagent no.":2,"log2 vehicle/camptothecin viability":-0.157,"viability with camptothecin":91.6}
{"Gene":"ESR2 (estrogen receptor 2)","reagent no.":3,"log2 vehicle/camptothecin viability":-0.26,"viability with camptothecin":58}
{"Gene":"ESR2 (estrogen receptor 2)","reagent no.":4,"log2 vehicle/camptothecin viability":-0.242,"viability with camptothecin":81}
{"Gene":"CELA2A (chymotrypsin like elastase 2A)","reagent no.":1,"log2 vehicle/camptothecin viability":0.728,"viability with camptothecin":23.1}
{"Gene":"CELA2A (chymotrypsin like elastase 2A)","reagent no.":2,"log2 vehicle/camptothecin viability":-0.0444,"viability with camptothecin":82.1}
{"Gene":"CELA2A (chymotrypsin like elastase 2A)","reagent no.":3,"log2 vehicle/camptothecin viability":0.0745,"viability with camptothecin":110}
{"Gene":"HIF1AN (hypoxia inducible factor 1 subunit alpha inhibitor)","reagent no.":1,"log2 vehicle/camptothecin viability":-0.397,"viability with camptothecin":68.8}
{"Gene":"HIF1AN (hypoxia inducible factor 1 subunit alpha inhibitor)","reagent no.":2,"log2 vehicle/camptothecin viability":0.136,"viability with camptothecin":57.9}
{"Gene":"HIF1AN (hypoxia inducible factor 1 subunit alpha inhibitor)","reagent no.":3,"log2 vehicle/camptothecin viability":-0.141,"viability with camptothecin":6.9}
{"Gene":"GEM (GTP binding protein overexpressed in skeletal muscle)","reagent no.":1,"log2 vehicle/camptothecin viability":-0.0861,"viability with camptothecin":52.7}
{"Gene":"GEM (GTP binding protein overexpressed in skeletal muscle)","reagent no.":2,"log2 vehicle/camptothecin viability":-0.54,"viability with camptothecin":92.6}
{"Gene":"GEM (GTP binding protein overexpressed in skeletal muscle)","reagent no.":3,"log2 vehicle/camptothecin viability":0.313,"viability with camptothecin":69.6}
{"Gene":"GEM (GTP binding protein overexpressed in skeletal muscle)","reagent no.":4,"log2 vehicle/camptothecin viability":0.065,"viability with camptothecin":77.8}
{"Gene":"TXNL1 (thioredoxin like 1)","reagent no.":1,"log2 vehicle/camptothecin viability":-0.107,"viability with camptothecin":98.5}
{"Gene":"TXNL1 (thioredoxin like 1)","reagent no.":2,"log2 vehicle/camptothecin viability":-0.164,"viability with camptothecin":101}
{"Gene":"TXNL1 (thioredoxin like 1)","reagent no.":3,"log2 vehicle/camptothecin viability":-0.355,"viability with camptothecin":67.7}
{"Gene":"TXNL1 (thioredoxin like 1)","reagent no.":4,"log2 vehicle/camptothecin viability":-0.307,"viability with camptothecin":119}
{"Gene":"MAPK8IP1 (mitogen-activated protein kinase 8 interacting protein 1)","reagent no.":1,"log2 vehicle/camptothecin viability":-0.117,"viability with camptothecin":96.8}
{"Gene":"MAPK8IP1 (mitogen-activated protein kinase 8 interacting protein 1)","reagent no.":2,"log2 vehicle/camptothecin viability":-0.428,"viability with camptothecin":79.5}
{"Gene":"MAPK8IP1 (mitogen-activated protein kinase 8 interacting protein 1)","reagent no.":3,"log2 vehicle/camptothecin viability":-0.492,"viability with camptothecin":46.6}
{"Gene":"MAPK8IP1 (mitogen-activated protein kinase 8 interacting protein 1)","reagent no.":4,"log2 vehicle/camptothecin viability":0.207,"viability with camptothecin":72.4}
{"Gene":"BPTF (bromodomain PHD finger transcription factor)","reagent no.":1,"log2 vehicle/camptothecin viability":-0.316,"viability with camptothecin":62.4}
{"Gene":"BPTF (bromodomain PHD finger transcription factor)","reagent no.":2,"log2 vehicle/camptothecin viability":-0.266,"viability with camptothecin":117}
{"Gene":"BPTF (bromodomain PHD finger transcription factor)","reagent no.":3,"log2 vehicle/camptothecin viability":-0.355,"viability with camptothecin":90.7}
{"Gene":"BPTF (bromodomain PHD finger transcription factor)","reagent no.":4,"log2 vehicle/camptothecin viability":-0.48,"viability with camptothecin":103}
{"Gene":"OR2C1 (olfactory receptor family 2 subfamily C member 1)","reagent no.":1,"log2 vehicle/camptothecin viability":0.525,"viability with camptothecin":13.2}
{"Gene":"OR2C1 (olfactory receptor family 2 subfamily C member 1)","reagent no.":2,"log2 vehicle/camptothecin viability":0.00334,"viability with camptothecin":88.5}
{"Gene":"OR2C1 (olfactory receptor family 2 subfamily C member 1)","reagent no.":3,"log2 vehicle/camptothecin viability":-0.234,"viability with camptothecin":109}
{"Gene":"OR2C1 (olfactory receptor family 2 subfamily C member 1)","reagent no.":4,"log2 vehicle/camptothecin viability":-0.596,"viability with camptothecin":70.4}
{"Gene":"MC5R (melanocortin 5 receptor)","reagent no.":1,"log2 vehicle/camptothecin viability":-0.249,"viability with camptothecin":84.5}
{"Gene":"MC5R (melanocortin 5 receptor)","reagent no.":2,"log2 vehicle/camptothecin viability":0.0137,"viability with camptothecin":77.9}
{"Gene":"MC5R (melanocortin 5 receptor)","reagent no.":3,"log2 vehicle/camptothecin viability":-0.235,"viability with camptothecin":74.3}
{"Gene":"MC5R (melanocortin 5 receptor)","reagent no.":4,"log2 vehicle/camptothecin viability":-0.174,"viability with camptothecin":56}
{"Gene":"SIGMAR1 (sigma receptor chaperone 1)","reagent no.":1,"log2 vehicle/camptothecin viability":-0.132,"viability with camptothecin":77.8}
{"Gene":"SIGMAR1 (sigma receptor chaperone 1)","reagent no.":2,"log2 vehicle/camptothecin viability":-0.473,"viability with camptothecin":65.6}
{"Gene":"SIGMAR1 (sigma receptor chaperone 1)","reagent no.":3,"log2 vehicle/camptothecin viability":0.102,"viability with camptothecin":34.5}
{"Gene":"SIGMAR1 (sigma receptor chaperone 1)","reagent no.":4,"log2 vehicle/camptothecin viability":-0.0346,"viability with camptothecin":72.2}
{"Gene":"OR4D1 (olfactory receptor family 4 subfamily D member 1)","reagent no.":1,"log2 vehicle/camptothecin viability":-0.141,"viability with camptothecin":69.7}
{"Gene":"OR4D1 (olfactory receptor family 4 subfamily D member 1)","reagent no.":2,"log2 vehicle/camptothecin viability":-0.629,"viability with camptothecin":97.1}
{"Gene":"OR4D1 (olfactory receptor family 4 subfamily D member 1)","reagent no.":3,"log2 vehicle/camptothecin viability":-0.377,"viability with camptothecin":75.3}
{"Gene":"OR4D1 (olfactory receptor family 4 subfamily D member 1)","reagent no.":4,"log2 vehicle/camptothecin viability":-0.053,"viability with camptothecin":56.3}
{"Gene":"ABCC4 (ATP binding cassette subfamily C member 4 (PEL blood group))","reagent no.":1,"log2 vehicle/camptothecin viability":-0.435,"viability with camptothecin":44.9}
{"Gene":"ABCC4 (ATP binding cassette subfamily C member 4 (PEL blood group))","reagent no.":2,"log2 vehicle/camptothecin viability":0.0101,"viability with camptothecin":72.7}
{"Gene":"ABCC4 (ATP binding cassette subfamily C member 4 (PEL blood group))","reagent no.":3,"log2 vehicle/camptothecin viability":-0.573,"viability with camptothecin":101}
{"Gene":"ABCC4 (ATP binding cassette subfamily C member 4 (PEL blood group))","reagent no.":4,"log2 vehicle/camptothecin viability":-0.157,"viability with camptothecin":89.7}
